Source: PMC11658232
Results are given in words; binding and its absence hold for the method and conditions named. In cells and extracts the contact can be indirect. Some binding calls cover weakened binding; strength is not graded here.

Amino acid sequences for entries named in this document (tags omitted). Residues count along the entry.
UniProt Q9Y5K6: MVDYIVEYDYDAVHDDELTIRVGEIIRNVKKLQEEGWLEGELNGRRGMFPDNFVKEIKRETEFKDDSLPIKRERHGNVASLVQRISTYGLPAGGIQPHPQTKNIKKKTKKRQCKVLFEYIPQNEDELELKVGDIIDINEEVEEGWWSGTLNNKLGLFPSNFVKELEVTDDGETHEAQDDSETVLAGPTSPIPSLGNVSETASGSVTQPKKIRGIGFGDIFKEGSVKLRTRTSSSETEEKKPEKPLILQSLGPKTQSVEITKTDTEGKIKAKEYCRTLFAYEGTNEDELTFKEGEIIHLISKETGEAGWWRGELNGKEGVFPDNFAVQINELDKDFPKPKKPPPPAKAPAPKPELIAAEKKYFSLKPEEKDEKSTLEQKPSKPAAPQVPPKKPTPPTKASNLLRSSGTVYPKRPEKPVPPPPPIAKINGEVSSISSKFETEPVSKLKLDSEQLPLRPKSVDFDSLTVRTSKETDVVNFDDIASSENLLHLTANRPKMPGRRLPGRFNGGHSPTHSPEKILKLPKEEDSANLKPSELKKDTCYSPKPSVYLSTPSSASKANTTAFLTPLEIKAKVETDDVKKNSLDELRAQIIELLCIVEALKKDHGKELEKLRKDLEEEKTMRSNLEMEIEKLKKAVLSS
UniProt Q9JLQ0: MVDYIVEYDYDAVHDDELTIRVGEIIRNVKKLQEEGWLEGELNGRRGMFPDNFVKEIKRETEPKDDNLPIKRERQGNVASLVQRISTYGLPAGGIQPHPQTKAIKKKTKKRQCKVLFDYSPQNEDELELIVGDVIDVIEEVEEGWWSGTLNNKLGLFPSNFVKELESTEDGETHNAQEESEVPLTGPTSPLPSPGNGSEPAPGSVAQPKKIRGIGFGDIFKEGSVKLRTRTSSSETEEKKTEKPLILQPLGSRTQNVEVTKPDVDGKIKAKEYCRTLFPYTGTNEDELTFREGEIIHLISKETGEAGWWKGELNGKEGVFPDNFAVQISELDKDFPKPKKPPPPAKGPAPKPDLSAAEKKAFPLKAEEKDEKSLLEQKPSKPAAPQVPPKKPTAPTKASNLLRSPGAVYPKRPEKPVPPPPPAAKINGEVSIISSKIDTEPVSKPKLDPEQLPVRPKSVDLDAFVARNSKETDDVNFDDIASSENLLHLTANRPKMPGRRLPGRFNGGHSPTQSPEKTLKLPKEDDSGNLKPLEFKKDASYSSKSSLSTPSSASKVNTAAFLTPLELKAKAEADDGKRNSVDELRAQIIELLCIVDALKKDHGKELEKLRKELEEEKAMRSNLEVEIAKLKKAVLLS
UniProt P07333, residues 20-972: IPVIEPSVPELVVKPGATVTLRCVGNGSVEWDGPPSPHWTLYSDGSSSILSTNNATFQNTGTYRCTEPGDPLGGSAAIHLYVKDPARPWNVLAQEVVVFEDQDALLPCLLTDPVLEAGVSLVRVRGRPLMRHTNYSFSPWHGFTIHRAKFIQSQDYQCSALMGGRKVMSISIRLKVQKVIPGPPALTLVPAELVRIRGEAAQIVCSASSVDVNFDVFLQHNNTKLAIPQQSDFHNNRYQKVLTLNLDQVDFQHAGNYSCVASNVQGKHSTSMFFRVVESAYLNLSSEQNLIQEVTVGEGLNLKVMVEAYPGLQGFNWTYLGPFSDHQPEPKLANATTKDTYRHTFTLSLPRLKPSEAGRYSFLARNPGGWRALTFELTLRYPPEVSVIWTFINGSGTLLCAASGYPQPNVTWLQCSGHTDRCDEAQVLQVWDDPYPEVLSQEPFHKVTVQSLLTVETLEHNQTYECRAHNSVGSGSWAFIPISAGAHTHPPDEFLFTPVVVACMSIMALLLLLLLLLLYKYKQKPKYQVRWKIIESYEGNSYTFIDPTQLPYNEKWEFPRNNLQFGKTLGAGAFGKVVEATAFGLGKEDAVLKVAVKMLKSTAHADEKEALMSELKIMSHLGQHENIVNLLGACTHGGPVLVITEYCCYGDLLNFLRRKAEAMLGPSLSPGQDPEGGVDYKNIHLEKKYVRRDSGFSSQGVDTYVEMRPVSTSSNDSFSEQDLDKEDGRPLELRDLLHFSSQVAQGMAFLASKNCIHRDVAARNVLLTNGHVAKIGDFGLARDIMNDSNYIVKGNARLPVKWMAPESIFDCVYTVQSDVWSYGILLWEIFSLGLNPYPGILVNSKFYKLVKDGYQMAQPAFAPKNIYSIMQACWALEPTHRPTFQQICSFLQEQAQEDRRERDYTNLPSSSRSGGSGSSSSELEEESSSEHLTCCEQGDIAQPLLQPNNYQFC

Experiments:
[1] = target: T1, endogenous CSF1R (mouse brain) (mouse (endogenous in mouse brain)) (UniProt P09581); assay: co-IP; endogenous proteins, mouse brain tissue lysed in TNEN buffer (50 mM Tris-HCl pH 8.0, 150 mM NaCl, 2 mM EDTA, 1% Nonidet P-40); anti-CSF1R or anti-CD93 antibody and Protein A/G MagBeads, 4 °C overnight; blot for CD2AP
T1 sequence: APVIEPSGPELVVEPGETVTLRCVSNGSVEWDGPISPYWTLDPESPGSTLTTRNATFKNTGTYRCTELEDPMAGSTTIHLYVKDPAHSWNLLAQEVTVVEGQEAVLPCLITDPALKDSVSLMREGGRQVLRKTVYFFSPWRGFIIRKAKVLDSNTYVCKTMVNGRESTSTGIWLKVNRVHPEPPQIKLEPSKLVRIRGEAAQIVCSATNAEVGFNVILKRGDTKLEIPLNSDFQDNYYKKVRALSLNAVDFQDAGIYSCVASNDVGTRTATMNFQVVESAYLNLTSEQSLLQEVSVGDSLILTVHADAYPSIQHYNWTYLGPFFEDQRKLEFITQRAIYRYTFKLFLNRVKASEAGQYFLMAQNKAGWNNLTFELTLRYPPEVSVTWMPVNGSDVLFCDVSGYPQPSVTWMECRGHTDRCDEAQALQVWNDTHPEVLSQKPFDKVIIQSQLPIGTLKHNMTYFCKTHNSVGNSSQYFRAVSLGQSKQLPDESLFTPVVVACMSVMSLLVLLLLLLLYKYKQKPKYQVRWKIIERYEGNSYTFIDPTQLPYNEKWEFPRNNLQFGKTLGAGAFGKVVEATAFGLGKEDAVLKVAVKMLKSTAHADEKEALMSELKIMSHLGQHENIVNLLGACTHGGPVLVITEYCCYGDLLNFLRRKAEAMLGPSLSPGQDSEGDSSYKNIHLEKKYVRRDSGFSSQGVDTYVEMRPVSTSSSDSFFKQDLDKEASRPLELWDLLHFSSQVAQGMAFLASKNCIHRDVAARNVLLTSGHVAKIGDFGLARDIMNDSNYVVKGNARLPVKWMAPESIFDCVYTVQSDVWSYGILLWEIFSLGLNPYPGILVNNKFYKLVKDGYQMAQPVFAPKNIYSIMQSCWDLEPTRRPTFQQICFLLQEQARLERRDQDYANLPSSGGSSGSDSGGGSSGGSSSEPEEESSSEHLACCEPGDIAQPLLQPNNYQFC

[2] = target: T2, endogenous CD93 (mouse brain) (mouse (endogenous in mouse brain)) (UniProt O89103); assay: as above
T2 sequence: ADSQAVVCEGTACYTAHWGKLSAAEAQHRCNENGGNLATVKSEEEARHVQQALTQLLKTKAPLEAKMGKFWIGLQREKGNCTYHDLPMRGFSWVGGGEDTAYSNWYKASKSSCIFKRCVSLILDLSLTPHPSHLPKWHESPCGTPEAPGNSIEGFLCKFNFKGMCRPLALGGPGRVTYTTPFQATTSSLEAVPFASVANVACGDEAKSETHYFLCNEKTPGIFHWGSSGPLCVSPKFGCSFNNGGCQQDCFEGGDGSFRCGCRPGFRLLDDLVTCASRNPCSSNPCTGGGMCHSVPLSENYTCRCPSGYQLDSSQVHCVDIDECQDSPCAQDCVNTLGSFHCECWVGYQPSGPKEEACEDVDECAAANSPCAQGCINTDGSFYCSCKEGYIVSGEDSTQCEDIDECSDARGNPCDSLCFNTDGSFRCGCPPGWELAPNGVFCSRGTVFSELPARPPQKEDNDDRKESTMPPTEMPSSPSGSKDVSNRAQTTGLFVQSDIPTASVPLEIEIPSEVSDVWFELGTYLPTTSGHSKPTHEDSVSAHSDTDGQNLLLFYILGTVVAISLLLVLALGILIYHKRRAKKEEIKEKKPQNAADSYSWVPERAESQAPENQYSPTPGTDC

CD2AP-MYC = CD2AP-MYC (UniProt Q9Y5K6); assay: co-IP; HEK293T transfected with CD2AP-MYC with or without CSF1R-HA, 24 h; TNEN buffer (50 mM Tris-HCl pH 8.0, 150 mM NaCl, 2 mM EDTA, 1% Nonidet P-40); anti-MYC antibody and Protein A/G MagBeads, 4 °C overnight; blot with anti-HA

| binding [1] | binding [2] | binding (CD2AP-MYC) | Substance |
| --- | --- | --- | --- |
| binds | no binding | – | endogenous CD2AP (mouse brain) (from UniProt Q9JLQ0 1-637) |
| – | – | binds | CSF1R-HA (from UniProt P07333 20-972) (receptor) |
